US12535491B2, “Vaccine comprising protein-targeted (PT) extracellular DNA isolated from bacterial matrix” (priority 2018, dated 2026)

Tested on: heat-resistant proteins of human plasma
Experiment: LC/MS of heat-resistant proteins in plasma after exposure to proteinase K and boiling
Conditions: for Effect (N-plasma + pk vs N-plasma): change on adding proteinase K to normal plasma

| Substance | Effect (N-plasma + pk vs N-plasma) | N-plasma + pk (LC/MS, control plasma with added proteinase K, heated at 100° C. for 5 minutes) |
| --- | --- | --- |
| PLMN_HUMAN | ↑ |  |
| CO3_HUMAN [CO3_HUMAN [3]] | ↑ | 93 |
